In the supplement of paper PMC4604168 (melanoma cell lines):
The list shows a part of the results. Many values rest on one well or one pass, so single values are uncertain.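 Cells were imaged in 1,536-well plates, and nuclei stained with an antibody against cleaved PARP were counted against all DNA-stained nuclei to give the apoptosis fraction. Screening doses were chosen to leave most cells alive, and resting and induced cleaved-PARP levels differ strongly between cell lines.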

How the values were obtained:
Assay in all cases: cleaved PARP positive nuclei fraction relative to DMSO control; melanoma cells; higher = more apoptosis
Conditions in all cases: library dose: low library concentration; 72 h
[1] = tested on: MZ2-MEL
[2] = tested on: MeWo
[3] = tested on: RPMI7951
[4] = tested on: RVH-421
[5] = tested on: SkMel28
[6] = tested on: SkMel2
[7] = tested on: SkMel30
[8] = tested on: SkMel5
[9] = tested on: UACC257
[10] = tested on: UACC62
[11] = tested on: WM115
[12] = tested on: WM1716
[13] = tested on: WM1745
[14] = tested on: WM3526
[15] = tested on: WM3619
[16] = tested on: WM451Lu

Row | Structure (SMILES) | cleaved PARP positive nuclei fraction [1] [%] | cleaved PARP positive nuclei fraction [2] [%] | cleaved PARP positive nuclei fraction [3] [%] | cleaved PARP positive nuclei fraction [4] [%] | cleaved PARP positive nuclei fraction [5] [%] | cleaved PARP positive nuclei fraction [6] [%] | cleaved PARP positive nuclei fraction [7] [%] | cleaved PARP positive nuclei fraction [8] [%] | cleaved PARP positive nuclei fraction [9] [%] | cleaved PARP positive nuclei fraction [10] [%] | cleaved PARP positive nuclei fraction [11] [%] | cleaved PARP positive nuclei fraction [12] [%] | cleaved PARP positive nuclei fraction [13] [%] | cleaved PARP positive nuclei fraction [14] [%] | cleaved PARP positive nuclei fraction [15] [%] | cleaved PARP positive nuclei fraction [16] [%]
1 | CCCS(=O)(=O)Nc1ccc(F)c(C(=O)c2c[nH]c3ncc(Cl)cc23)c1F + O=c1cc(-c2cccc3c2Sc2ccccc2S3)oc(N2CCOCC2)c1 [KU55933] (first compound 0.08 µM, partner dose 1 µM) | 69.3 | 59.8 | 57.6 | 93.9 | 105 | 101 | 203 | 67.1 | 114 | 170 | 150 | 31.3 | 90.5 | 115 | 129 | 143
2 | C=C(c1ccc(C(=O)O)cc1)c1cc2c(cc1C)C(C)(C)CCC2(C)C [Bexarotene] + c1cc(-c2cnn3cc(-c4ccc(OCCN5CCCCC5)cc4)cnc23)ccn1 [Dorsomorphin] (first compound 2 µM, partner dose 0.4 µM) | 98.4 | 49.8 | 51.8 | 77.9 | 157 | 94.4 | 248 | 91 | 137 | 102 | 41.9 | 136 | 110 | 167 | 88.7 | 123
3 | Cn1c(=O)n(-c2ccc(C(C)(C)C#N)cc2)c2c3cc(-c4cnc5ccccc5c4)ccc3ncc21 + COc1cc2ncnc(Nc3ccc(Oc4ccccc4)cc3)c2cc1OC [SrcI1] (first compound 0.004 µM, partner dose 2 µM) | 83 | 137 | 59.5 | 82.5 | 228 | 28.9 | 128 | 65 | 118 | 450 | 239 | 72.7 | 92.7 | 92.2 | 124 | 47.7
4 | Cn1c(=O)n(-c2ccc(C(C)(C)C#N)cc2)c2c3cc(-c4cnc5ccccc5c4)ccc3ncc21 + CO[C@@H]1[C@H](N(C)C(=O)c2ccccc2)C[C@H]2O[C@]1(C)n1c3ccccc3c3c4c(c5c6ccccc6n2c5c31)C(=O)NC4 [Midostaurin] (first compound 0.004 µM, partner dose 0.08 µM) | 67.1 | 50.2 | 115 | 107 | 42.7 | 69.4 | 73.5 | 65.4 | 42 | 138 | 133 | 137 | 112 | 66.5 | 132 | 158
5 | C[C@@H](Oc1cc(-c2cnn(C3CCNCC3)c2)cnc1N)c1c(Cl)ccc(F)c1Cl [Crizotinib] + Oc1cc(-c2nc(-c3ccccc3)[nH]c2-c2ccncc2)ccc1Cl [L779450] (first compound 0.2 µM, partner dose 0.2 µM) | 203 | 162 | 54.1 | 113 | 203 | 54.3 | 150 | 156 | 136 | 127 | 270 | 368 | 88.8 | 118 | 95.9 | 16.1
6 | C[C@@H](Oc1cc(-c2cnn(C3CCNCC3)c2)cnc1N)c1c(Cl)ccc(F)c1Cl [Crizotinib] + Oc1nc(-c2ccc(C(F)(F)F)cc2)nc2c1CSCC2 [XAV939] (first compound 0.2 µM, partner dose 2 µM) | 117 | 99.6 | 62.2 | 107 | 92 | 80.1 | 38.1 | 85.7 | 154 | 72.3 | 102 | 219 | 97.6 | 59.2 | 102 | 74.5
7 | Cn1c(=O)n(-c2ccc(C(C)(C)C#N)cc2)c2c3cc(-c4cnc5ccccc5c4)ccc3ncc21 + c1cc(-c2cnn3cc(-c4ccc(OCCN5CCCCC5)cc4)cnc23)ccn1 [Dorsomorphin] (first compound 0.004 µM, partner dose 0.4 µM) | 127 | 32.7 | 218 | 30.3 | 368 | 13 | 102 | 73.7 | 129 | 172 | 63 | 107 | 91 | 67.2 | 105 | 145
8 | Nc1ncn([C@H]2C[C@H](O)[C@@H](CO)O2)c(=O)n1 [decitabine] + CC1(C)NC(=O)N(c2ccc([N+](=O)[O-])c(C(F)(F)F)c2)C1=O [nilutamide] (first compound 0.1 µM, partner dose 1 µM) | 135 | 197 | 113 | 39.2 | 119 | 118 | 71.9 | 75.9 | 59 | 35.3 | 137 | 98.5 | 78 | 49.1 | 76.7 | 124
9 | Cn1c(=O)n(-c2ccc(C(C)(C)C#N)cc2)c2c3cc(-c4cnc5ccccc5c4)ccc3ncc21 + O=C1NC(=O)/C(=C/c2ccc(-c3ccc(F)cc3O)o2)S1 [AS252424] (first compound 0.004 µM, partner dose 1 µM) | 44.4 | 97.2 | 120 | 158 | 210 | 36.6 | 54.7 | 77.8 | 226 | 126 | 121 | 93 | 79.5 | 53 | 94.9 | 141
